No constants are given. Whether binding was seen depends on the method and setting. For part of these data: In cells and extracts the contact can be indirect. Some results given as binding are weak or reduced against the parent protein; the word gives no strength. For part of these data: Tags and fused reporters may be left off the sequences shown. Blank lines part the entries; values can stand above or below the molecule they belong to.
Assays:
GST-tagged Rep8 (human) = biological target: T1, GST-tagged Rep8 (human) (UniProt O00124); assay: pull-down; GST or GST fusion proteins immobilised on glutathione Sepharose beads; purified p97 (from red blood cells, or 6His-tagged p97 and truncations), about 3 ug p97 per reaction, buffer A, 4°C, 4 h; bound proteins by SDS-PAGE and blotting; both purified
T1 sequence: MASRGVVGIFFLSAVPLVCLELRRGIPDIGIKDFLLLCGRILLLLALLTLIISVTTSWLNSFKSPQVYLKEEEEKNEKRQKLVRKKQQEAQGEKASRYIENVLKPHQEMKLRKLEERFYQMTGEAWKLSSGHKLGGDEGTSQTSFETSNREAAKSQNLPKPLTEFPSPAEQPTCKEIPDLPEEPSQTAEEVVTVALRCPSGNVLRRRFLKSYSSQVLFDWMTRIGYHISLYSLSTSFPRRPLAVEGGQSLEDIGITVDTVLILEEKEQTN

[1] = biological target: T2, GST-tagged Rep8 UBX domain (truncation) (human) (UniProt O00124); assay: as above
T2 sequence: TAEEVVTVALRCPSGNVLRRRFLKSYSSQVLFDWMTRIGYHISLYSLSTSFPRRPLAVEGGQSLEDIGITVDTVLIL

[2] = biological target: endogenous p97 (HeLa cells) (human (endogenous in HeLa)) (UniProt P55072); assay: co-IP; endogenous p97 immunoprecipitated from HeLa cell lysates; blot with antibodies to p97 and Rep8

binding (GST-tagged Rep8 (human)): binds
binding [1]: binds
Molecule: p97 purified from human red blood cells (from UniProt P55072 1-806)

binding [2]: binds
B1: endogenous Rep8 (HeLa cells) (protein, UniProt O00124 1-270)
chain: T1 sequence
